Measured data: PubChem BioAssay AID1259308 (NCATS, 2017)

Purpose: 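Genes whose loss raises luciferase production in HEK293 cells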 (primary screen)
Cells: human HEK293 embryonic kidney cells stably expressing firefly luciferase (HEK-CMV-Luc2-Hygro)
Knock-down reagent: single siRNA against human genes, 0.8 pmol siRNA per well
Time to read-out: 72 h
Measured: 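Reporter luminescence and viable-cell signal on separate replicate plates, given as percent of non-targeting control and median/MAD z-scores, plus per-cell luciferase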
Scale: total luciferase, z-score: higher = more reporter protein produced
Rule for the call: 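An siRNA counts as active if its total luciferase robust z-score exceeds 3; genes with two or more such siRNAs out of three were retested with fresh siRNAs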
Calls: active = raised luciferase; inactive = no rise
Here is an unselected part of about 59,000 deposited reagents. In the full data, about 1,510 (2.6%) were called active. 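Calls use total luciferase alone and ignore viability, so some active siRNAs may act by altering cell number.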 Not all columns of the deposit are shown.

total luciferase, z-score, by gene and reagent
RNF148 (ring finger protein 148): SID160765541 -1.34 inactive; SID160765542 -1.21 inactive; SID160765543 -1.18 inactive
UBR5 (ubiquitin protein ligase E3 component n-recognin 5): SID160731366 1.48 inactive; SID160740689 0.0787 inactive; SID160740690 -0.221 inactive
NT5E (5'-nucleotidase ecto): SID160778254 -1.33 inactive; SID160778255 -0.539 inactive; SID160778256 -0.365 inactive
LGSN (lengsin, lens protein with glutamine synthetase domain): SID160740998 0.384 inactive; SID160740999 -0.511 inactive; SID160741000 -0.925 inactive
PLPP5 (phospholipid phosphatase 5): SID160752330 0.813 inactive; SID160752331 -0.549 inactive; SID160752332 1.62 inactive
ZC3H11D (zinc finger CCCH-type containing 11D): SID160759777 3.63 active; SID160759778 1.93 inactive; SID160759779 -0.00476 inactive
PRKY (protein kinase Y-linked (pseudogene)): SID160715039 -0.699 inactive; SID160715040 -0.738 inactive; SID160715041 1.13 inactive

Entries listed above called active (1):
total luciferase, z-score, by gene and reagent
ZC3H11D (zinc finger CCCH-type containing 11D): SID160759777 3.63 active

Continued.
total luciferase, z-score, by gene and reagent
SLC23A3: SID160759090 1.73 inactive; SID160759091 0.0254 inactive; SID160759092 -1.28 inactive
SLC39A7: SID160719485 2.54 inactive; SID160719486 1.35 inactive; SID160719488 -1.92 inactive
CENATAC (centrosomal AT-AC splicing factor): SID160764059 1.02 inactive; SID160764060 -0.66 inactive; SID160764062 -0.342 inactive
ITPKB (inositol-trisphosphate 3-kinase B): SID160776052 -0.937 inactive; SID160776053 0.599 inactive; SID160776055 0.16 inactive
ITGB1BP2 (integrin subunit beta 1 binding protein 2): SID160738080 -1.97 inactive; SID160738081 -0.766 inactive; SID160738082 0.248 inactive
SPATA12 (spermatogenesis associated 12): SID160765185 -0.397 inactive; SID160765186 -0.135 inactive; SID160765187 -3.01 inactive
SYNPR (synaptoporin): SID160757146 1.41 inactive; SID160757147 2.32 inactive; SID160757148 -0.811 inactive
LINC01822 (long independently transcribed non-coding RNA 1822): SID160769742 0.175 inactive; SID160769743 2.18 inactive; SID160769744 0.737 inactive
OPLAH (5-oxoprolinase, ATP-hydrolysing): SID160738184 -0.634 inactive; SID160738185 0.504 inactive; SID160738186 0.291 inactive
CLDN6 (claudin 6): SID160721411 -0.439 inactive; SID160721413 -0.612 inactive; SID160721414 0.51 inactive
SLC30A3: SID160724113 1.41 inactive; SID160724114 -0.0548 inactive; SID160724115 0.153 inactive
NAT10 (N-acetyltransferase 10): SID160743281 -0.316 inactive; SID160743282 -0.354 inactive; SID160743283 -0.197 inactive
